{"source": "patent US20020183249A1", "about": "(priority 1999, published 2002)", "key": {"[1]": {"experiment": "general procedure: Fmoc solid-phase peptide synthesis; Aad(tBu) loaded trityl resin; HBTU, TBTU, HATU with N,N-diisopropylethylamine", "conditions": "whole synthesis, scale 0.083 mmol"}, "[2]": {"experiment": "general procedure: Fmoc solid-phase peptide synthesis; Rink amide AM resin; HBTU, TBTU, HATU with N,N-diisopropylethylamine", "conditions": "whole synthesis, scale 0.1 mmol"}, "[3]": {"experiment": "general procedure: Fmoc solid-phase peptide synthesis; trityl resin; HBTU, TBTU, HATU with N,N-diisopropylethylamine", "conditions": "whole synthesis, scale 0.15 mmol"}}, "data": [{"substance": "2-CH3O-1-naphthyl-CO—Smp—Glu—Glu—Bta—Aad—NHtBu", "values": [{"measurement": "isolated mass", "setting": "[1]", "result": 13, "unit": "mg"}]}, {"substance": "2-CH3O-Naphtyl-1-CO—Smp—Glu—Glu—Nal—Glu—NH2", "values": [{"measurement": "isolated mass", "setting": "[2]", "result": 25, "unit": "mg"}]}, {"substance": "2-EtO-1-naphthyl -1-CO—Smp—Glu—Glu—Bta—Glu—NH2", "values": [{"measurement": "isolated mass", "setting": "[2]", "result": 22, "unit": "mg"}]}, {"substance": "2-EtO-1-naphthyl-CO—Smp—Nva-(3-Me)Pro—Bta—Aad—NHtBu", "values": [{"measurement": "crude mass", "setting": "[3]", "result": 105, "unit": "mg"}, {"measurement": "crude yield", "setting": "[3]", "result": 66, "unit": "%"}]}]}
